The list shows a part of the results, in another mix than the full data. Activity calls are given as the source filed them. Rule as the data show it: active = inhibition above about 32%; inactive = the rest.
Assay: TEAD-YAP interaction inhibition, primary screen, TEAD-YAP interaction inhibitor project, luminescence, HEK-TIYL cells (AID 1259422);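 also: 0% = median of test compound wells and 100% = reference inhibitor wells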
Conditions: TEAD-Gal4/YAP UAS-luciferase luminescence, at 9.12 µM, stronger effect = higher value

Structure (SMILES) | inhibition
CCC(CO)Nc1ccc2ncc(-c3cccc(NC(C)=O)c3)n2n1 (configuration not stated) | active: 75%
O=C(/C=C/c1ccccc1)Nc1cccc(O)c1 | active: 71.5%
